# In PubChem BioAssay AID624297 (National Center for Advancing Translational Sciences (NCATS), 2012):
# Among all 340,000 compounds or so, about 6,200 (1.8%) were called active. Inconclusive means that the source gave no clear call. Such entries were picked first, then a sample of the others. Calls come from the whole dose curve; as a rule, active = well fitted activation curve with a large enough effect; inconclusive = small, poorly fitted or top-dose-only effect; inactive = no such curve, though single readings can be large or run the other way. Potencies of inconclusive entries are doubtful fits and often do not repeat.
# Assay: A quantitative high throughput screen for small molecules that induce DNA re-replication in SW480 colon adenocarcinoma cells. For re-replication activation: % of control where 0% means no effect. Note: nearly all actives have a fitted effect of over 55% in size.
# Conditions: Hoechst DNA content imaging, 48 h; re-replication activation: at 46.1 µM (top of the series) unless noted
# In short: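 Quantitative HTS format with DMSO vehicle controls; 48 hr drug incubation at 37 C, then 40 min Hoechst staining and scanning imager measurement at 405 nm excitation.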
# Potency is the fitted concentration of half-maximal effect.
SMILES,Potency,re-replication activation
COc1ccc(NC(=O)COC(=O)/C=C/C(=O)OCC(=O)Nc2ccc(OC)c(Cl)c2)cc1Cl,"inconclusive: 18.4 µM [activator, partial curve, poor fit]",–
COC(=O)/C=C1/S/C(=N/NC(=O)c2ccc(Cl)cc2Cl)NC1=O,"inconclusive: 0.92 µM [activator, full curve, poor fit]",–
Cn1cc(C(=O)N/N=C/c2ccc3c(c2)OCO3)c2ccccc21,"inconclusive: 29.1 µM [activator, single point]",–
Cc1nc2c3cnn(-c4ccccc4)c3ncn2n1,"inconclusive: 23.1 µM [activator, partial curve, poor fit]",–
Nc1nnn(-c2ccccc2)c1-c1ccccc1,active: 14.6 µM,–
O=C(Nc1ccccc1O)c1ccc2c(c1)C(=O)N(Cc1ccco1)C2=O,"inconclusive: 1.16 µM [activator, full curve, poor fit]",–
CCC(=O)Nc1ccc(C(=O)CSc2nc(N)cc(N)n2)cc1,"inconclusive: 18.4 µM [activator, single point]",–
O=C(/C=C/c1ccco1)N(Cc1ccccc1F)C1CCS(=O)(=O)C1 (stereo not drawn),"inconclusive: 23.1 µM [activator, single point]",–
O/C(=C\c1nc2ccccc2[nH]1)c1cccs1,"inconclusive: 25.9 µM [activator, partial curve, poor fit]",–
CCOC(=O)c1c(-c2ccc(-c3ccccc3)cc2)csc1NC(=O)CNCCN(C)C,"inconclusive: 20.6 µM [activator, single point]",–
COc1cc(CCC(=O)Nc2cccc(S(=O)(=O)N(C)C)c2)cc(OC)c1OC,"inconclusive: 32.6 µM [activator, single point]",–
COc1ccc(C(=O)CCNc2ccc3c(c2)OCCO3)cc1,"inconclusive: 18.4 µM [activator, single point]",–
C/C(=N/NC(=O)c1ccc2c(c1)OCO2)c1cccc([N+](=O)[O-])c1,inactive,–
Oc1ccccc1-c1n[nH]c(=S)n1Cc1ccco1,inactive,–
Cc1cc(NC(=S)NC(=O)c2ccco2)c2ccccc2n1,"inconclusive: 0.291 µM [activator, full curve, poor fit]",–
O=C(CSc1ccc(Cl)cc1)NCc1ccncc1,"inconclusive: 20.6 µM [activator, partial curve, poor fit]",–
Cc1ccc(S(=O)(=O)NNc2nc3ccccc3nc2C(F)(F)F)cc1,"inconclusive: 29.1 µM [activator, single point]",–
Cc1cc([N+](=O)[O-])ccc1NCc1ccc2ccccc2c1,inactive,–
COc1ccc(/C=C2/CC/C(=C\c3ccc(OC)c(OC)c3OC)C2=O)c(OC)c1OC,"inconclusive: 32.6 µM [activator, partial curve, poor fit]",–
CC1CCCCC1NS(=O)(=O)c1ccc(S(=O)(=O)NCc2ccncc2)cc1 (stereo not drawn),inactive,–
COc1ccc(N2CCN(C(=O)c3ccc(CNS(=O)(=O)c4cc(C)ccc4C)cc3)CC2)cc1,inactive,–
OC(c1ccccc1)C(NCCNCc1ccccc1)c1ccccc1 (stereo not drawn),"inconclusive: 18.4 µM [activator, single point]",–

# 3 structures from above, sorted by molar mass, rising:
SMILES,Potency,re-replication activation
Nc1nnn(-c2ccccc2)c1-c1ccccc1,active: 14.6 µM,–
CCC(=O)Nc1ccc(C(=O)CSc2nc(N)cc(N)n2)cc1,"inconclusive: 18.4 µM [activator, single point]",–
CC1CCCCC1NS(=O)(=O)c1ccc(S(=O)(=O)NCc2ccncc2)cc1 (stereo not drawn),inactive,–

# Remaining list, next part.

SMILES,Potency,re-replication activation
CCOc1ccc(OCCCC(=O)N(CC)CC(=O)Nc2c(F)cccc2F)cc1,"inconclusive: 3.26 µM [activator, full curve, poor fit]",–
Nc1ncc2c(n1)CCN(c1ccc([N+](=O)[O-])cc1)C2,"inconclusive: 14.6 µM [activator, partial curve]",–
COc1ccc(CCC(C)NC2CCCCCCC2)cc1 (stereo not drawn),"inconclusive: 18.4 µM [activator, single point]",–
COc1cccc2sc(NNC(=O)c3nc4ccccc4s3)nc12,"inconclusive: 29.1 µM [activator, partial curve, poor fit]",–
CC1=C(C(=O)OC2CCCCC2)C(c2ccco2)C2=C(CC(C)(C)CC2=O)N1 (stereo not drawn),"inconclusive: 29.1 µM [activator, partial curve, poor fit]",–
COc1ccc(N2CCN(C(=O)c3cc(C)oc3C)CC2)cc1,"inconclusive: 0.0041 µM [activator, full curve, poor fit]",–
Oc1ccc(C[C@@H]2CNCCN2CCCCC2CCCCC2)cc1,"inconclusive: 18.4 µM [activator, partial curve, poor fit]",–
COc1ccccc1C(CNC(=O)c1cccc(NS(=O)(=O)c2ccc(Br)cc2)c1)N(C)C (stereo not drawn),"inconclusive: 20.6 µM [activator, single point]",–
Cc1cccc(OCCn2c(NC(=O)c3ccco3)nc3ccccc32)c1,"inconclusive: 29.1 µM [activator, single point]",–
COc1cc([N+](=O)[O-])cc(/C=N/NC(=O)C(C)Nc2ccccc2C)c1O (stereo not drawn),"inconclusive: 18.4 µM [activator, single point]",–
COC(=O)c1ccc(C[n+]2ccccc2)cc1,inactive,–
Cc1c(Cl)ccc2c(C(=O)Nc3cc(C(C)(C)C)on3)cc(-c3ccccn3)nc12,"inconclusive: 29.1 µM [activator, single point]",–
O=C(Oc1ccc2ccccc2c1Cl)N1CCCCCC1,inactive,–
COc1ccc2nc(N3CCCC(C(=O)NCCc4ccc(OC)c(OC)c4)C3)sc2c1 (stereo not drawn),inactive,–
O=C1CN(C(=O)c2ccccc2F)C(c2ccc(F)cc2)c2cc(Br)ccc2N1 (stereo not drawn),inactive,–
CC(=O)Nc1ccc(C(=O)Nc2cc(C(F)(F)F)ccc2-n2cnc3ccccc32)cc1,"inconclusive: 29.1 µM [activator, single point]",–
COc1cc(C(=O)Nc2ccc(C)cc2)c2ccccc2n1,active: 20.6 µM,–
Cc1ccc(O)c(C(=O)CC(=O)c2ccc(Cl)cc2)c1,"inconclusive: 29.1 µM [activator, single point]",–
CCOc1ccc(-n2c(C)cc(/C=N/N(C)C)c2C)cc1,inactive,–
O=Cc1ccccc1OCc1nnsc1Cl,"inconclusive: 18.4 µM [activator, single point]",–
Cc1cc(Cl)ccc1NC(=S)NCc1cccs1,–,inactive: 0.564% [at 9.22 µM]
